Assay results from patent US10772893B2, “2-(morpholin-4-yl)-1,7-naphthyridines” (BAYER PHARMA AKTIENGESELLSCHAFT, priority 2014, dated 2020).

System: Caco-2 cells
Assay: Proliferation assay, crystal violet staining
Format: cell-based
Details: Homo sapiens, Caco-2, 96 h, read-out: Inhibition of Caco-2 cell proliferation

IC50: 237 nM
Compound: C[C@@H]1COCCN1c1cc(-c2ccnn2C)c2ccnc(-c3ccn[nH]3)c2n1 [Example 111, 2-[(3R)-3-methylmorpholin-4-yl]-4-(1-methyl-1H-pyrazol-5-yl)-8-(1H-pyrazol-5-yl)-1,7-naphthyridine]
